System: peptides in gingival brush samples
Assay: Protein and peptide profiling of gingival brush samples (LC-MS/MS), TABLE 23
Format: in vivo, human
Conditions: for Mean Cntl Bsl / Mean Cntl Wk3 / Mean TrtBsl / Mean TrtWk3: peptide abundance, gingival brush samples; for Mean Cntl Bsl / Mean Cntl Wk3 / Mean CntlBsl (peptide abundance) / Mean CntlWk3 (peptide abundance): control regimen; for Mean Cntl Bsl / Mean TrtBsl / Mean CntlBsl (peptide abundance) / Mean TrtBsl (peptide abundance): baseline; for Mean Cntl Wk3 / Mean TrtWk3 / Mean CntlWk3 (peptide abundance) / Mean TrtWk3 (peptide abundance): week 3; for Mean TrtBsl / Mean TrtWk3 / Mean TrtBsl (peptide abundance) / Mean TrtWk3 (peptide abundance): treatment regimen; for Mean CntlBsl (peptide abundance) / Mean CntlWk3 (peptide abundance) / Mean TrtBsl (peptide abundance) / Mean TrtWk3 (peptide abundance): pooled gingival brush samples, LC-MS/MS

PPIA_HUMAN was tested, and the “Mean Cntl Bsl” value was 10474.4, the “Mean Cntl Wk3” value was 13854.3 and the “Mean TrtBsl” value was 10876.4. For the same substance, the “Mean TrtWk3” value was 16838.5.

PPIB_HUMAN was tested, and the “Mean Cntl Bsl” value was 1483.2, the “Mean Cntl Wk3” value was 2313.8 and the “Mean TrtBsl” value was 424.1. The “Mean TrtWk3” value was 1663.6.

With PSME1_HUMAN the “Mean Cntl Bsl” value was 1309.6, the “Mean Cntl Wk3” value was 2136.1 and the “Mean TrtBsl” value was 479.7. The “Mean TrtWk3” value was 1982.2.

In the case of RD23B_HUMAN, the “Mean CntlBsl (peptide abundance)” value is reported as 954.6, the “Mean CntlWk3 (peptide abundance)” value is reported as 2401.6 and the “Mean TrtBsl (peptide abundance)” value is reported as 2542.4. The “Mean TrtWk3 (peptide abundance)” value was 3945.9.

With RECQ5_HUMAN the “Mean Cntl Bsl” value was 3312.2, the “Mean Cntl Wk3” value was 5483.6 and the “Mean TrtBsl” value was 3823.0. The “Mean TrtWk3” value was 5623.5.

In the case of S10A8_HUMAN, the “Mean CntlBsl (peptide abundance)” value is reported as 38968.7, the “Mean CntlWk3 (peptide abundance)” value is reported as 41008.0 and the “Mean TrtBsl (peptide abundance)” value is reported as 14185.0. The “Mean TrtWk3 (peptide abundance)” value was 31460.6.

S10A9_HUMAN was tested, and the “Mean CntlBsl (peptide abundance)” value was 483769.1, the “Mean CntlWk3 (peptide abundance)” value was 545150.1 and the “Mean TrtBsl (peptide abundance)” value was 411383.9. The “Mean TrtWk3 (peptide abundance)” value was 648948.4.

For TCTP_HUMAN, the “Mean CntlBsl (peptide abundance)” value was 1566.9, the “Mean CntlWk3 (peptide abundance)” value was 2422.8 and the “Mean TrtBsl (peptide abundance)” value was 1438.3. The “Mean TrtWk3 (peptide abundance)” value was 2941.9.

For TERA_HUMAN, the “Mean CntlBsl (peptide abundance)” value was 5692.4, the “Mean CntlWk3 (peptide abundance)” value was 9616.4 and the “Mean TrtBsl (peptide abundance)” value was 6262.0. The “Mean TrtWk3 (peptide abundance)” value was 11337.6.

For TPIS_HUMAN, the “Mean CntlBsl (peptide abundance)” value was 4301.4, the “Mean CntlWk3 (peptide abundance)” value was 7296.5 and the “Mean TrtBsl (peptide abundance)” value was 4916.5. For the same substance, the “Mean TrtWk3 (peptide abundance)” value was 9475.5.

In the case of TRFE_HUMAN, the “Mean CntlBsl (peptide abundance)” value is reported as 9903.5, the “Mean CntlWk3 (peptide abundance)” value is reported as 11794.2 and the “Mean TrtBsl (peptide abundance)” value is reported as 11823.8. The “Mean TrtWk3 (peptide abundance)” value was 16197.3.

For UB2V1_HUMAN, the “Mean CntlBsl (peptide abundance)” value was 3307.2, the “Mean CntlWk3 (peptide abundance)” value was 5580.5 and the “Mean TrtBsl (peptide abundance)” value was 2880.5. For the same substance, the “Mean TrtWk3 (peptide abundance)” value was 6110.0.

WIBG_HUMAN was tested, and the “Mean Cntl Bsl” value was 3468.5, the “Mean Cntl Wk3” value was 4789.6 and the “Mean TrtBsl” value was 3729.9. For the same substance, the “Mean TrtWk3” value was 5686.7.

In the case of YBOX3_HUMAN, the “Mean CntlBsl (peptide abundance)” value is reported as 9414.4, the “Mean CntlWk3 (peptide abundance)” value is reported as 13549.8 and the “Mean TrtBsl (peptide abundance)” value is reported as 8580.6. The “Mean TrtWk3 (peptide abundance)” value was 15477.7.

Source: US20180320217A1, “METHODS FOR SAMPLING AND MEASURING ORAL LAVAGE PROTEINS” (The Procter & Gamble Company, priority 2017, published 2018)
